Reference: patent US11154519B2, “Inhibitors and their uses” (MEDICAL RESEARCH COUNCIL, priority 2015, dated 2021)
These are yes or no findings as the source states them, for the method shown. Some binding calls cover weakened binding; strength is not graded here.

Sequences of proteins named here, by UniProt entry; tags and fusion partners are left off. A change or cut given only in a name is not applied to a line headed by its entry. Residues count along the entry.
UniProt P36873: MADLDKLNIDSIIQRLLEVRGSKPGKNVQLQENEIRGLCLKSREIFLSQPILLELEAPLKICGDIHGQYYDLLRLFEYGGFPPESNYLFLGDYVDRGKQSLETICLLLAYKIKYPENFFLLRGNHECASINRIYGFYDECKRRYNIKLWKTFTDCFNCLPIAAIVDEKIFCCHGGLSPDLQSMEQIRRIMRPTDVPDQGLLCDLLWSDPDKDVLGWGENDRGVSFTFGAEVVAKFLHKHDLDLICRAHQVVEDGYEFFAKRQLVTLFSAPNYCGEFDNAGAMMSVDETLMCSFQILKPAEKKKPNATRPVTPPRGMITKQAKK
UniProt Q5SWA1, residues 340-698: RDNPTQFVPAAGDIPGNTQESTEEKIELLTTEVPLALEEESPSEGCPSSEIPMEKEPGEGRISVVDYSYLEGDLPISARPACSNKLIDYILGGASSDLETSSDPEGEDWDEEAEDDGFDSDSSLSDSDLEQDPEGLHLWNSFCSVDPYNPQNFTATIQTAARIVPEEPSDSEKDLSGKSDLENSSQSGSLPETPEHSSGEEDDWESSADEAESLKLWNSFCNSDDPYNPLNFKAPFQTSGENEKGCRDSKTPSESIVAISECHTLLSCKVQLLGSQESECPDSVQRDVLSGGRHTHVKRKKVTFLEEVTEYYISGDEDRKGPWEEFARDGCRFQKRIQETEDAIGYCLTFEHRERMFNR

Legend:
[1] = biological target: biotinylated BAP-tagged human PP1γ (human) (UniProt P36873); assay: SPR, BAP-PP1γ on SA chip, 10 µM PPP1R15A/B injected for 80 s
[2] = biological target: biotinylated BAP-tagged human PP1γ (human) (UniProt P36873); assay: SPR (Biacore T200), bio-PP1c on SA chip, regulatory subunit injected, 10° C.
[3] = biological target: biotinylated BAP-tagged human PP1γ (human) (UniProt P36873); assay: SPR (Biacore T200), biotin-PP1 on SA chip, regulatory subunit injected

binding [1]: binds | binding [2]: binds | binding [3]: binds
Substance: MBP-R15B^340-698-His (from UniProt Q5SWA1 340-698)
